According to the supplement of paper PMC10331698:
± gives the standard deviation of the averaged measurements. Most values lie at the level of the controls, where differences are scatter.

Assays:
Assay in all cases: level (log10 ratio to DMSO vehicle control); higher = higher biomarker level / cell amount than vehicle control
[1] = compound: C=C(C)C(=O)OCC(F)(F)C(F)(F)C(F)(F)F [2,2,3,3,4,4,4-Heptafluorobutyl methacrylate]; details: 2200 nM; in DMSO
Procedure: (§1)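 BioMAP Diversity Plus panel of 12 human primary cell co-culture systems (3C, 4H, LPS, SAg, BT, BF4T, BE3C, CASM3C, HDF3CGF, KF3CT, MyoF, Mphg). Compounds were added 1 h before stimulation and left for 24 h (MyoF 48 h; BT 72 h for soluble read-outs or 6 d for IgG). Biomarkers were read by ELISA, cytotoxicity by SRB, PBMC viability and proliferation by Alamar Blue. Each well value was divided by the mean of 8 DMSO control wells on the same plate and log10 transformed; duplicate blinded samples were tested at 4 concentrations.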

[2] = compound: C=CC(=O)OCC(F)(F)C(F)(F)C(F)(F)C(F)(F)COC(=O)C=C [1H,1H,6H,6H-Perfluorohexane-1,6-diol diacrylate]; details: 2200 nM; in DMSO
Procedure: as §1

[3] = compound: FC(F)(F)C(F)(F)C(F)(F)C(F)(F)C(F)(F)C(F)(F)C(F)(F)CCI [1-Iodo-1H,1H,2H,2H-perfluorononane]; details: in DMSO
Procedure: as §1

[4] = compound: FC(F)(F)C(F)(F)C(F)(F)C(F)(F)C(F)(F)C(F)(F)C(F)(F)I [1-Iodopentadecafluoroheptane]; details: in DMSO
Procedure: as §1

[5] = compound: FC(F)C(F)(F)COCC1CO1 [((2,2,3,3-Tetrafluoropropoxy)methyl)oxirane]; details: 2200 nM; in DMSO
Procedure: as §1

Perfluorooctanamide = compound: NC(=O)C(F)(F)C(F)(F)C(F)(F)C(F)(F)C(F)(F)C(F)(F)C(F)(F)F [Perfluorooctanamide]; details: 2200 nM; in DMSO
Procedure: as §1

Perfluoroundecanoic acid = compound: O=C(O)C(F)(F)C(F)(F)C(F)(F)C(F)(F)C(F)(F)C(F)(F)C(F)(F)C(F)(F)C(F)(F)C(F)(F)F [Perfluoroundecanoic acid]; details: in DMSO
Procedure: as §1

[6] = compound: O=C(O)C(F)(F)C(F)(F)C(F)(F)C(F)(F)C(F)(F)C(F)(F)C(F)(F)C(F)F [9-H-Perfluorononanoic acid]; details: 2200 nM; in DMSO
Procedure: as §1

Perfluorobutanoic acid = compound: O=C(O)C(F)(F)C(F)(F)C(F)(F)F [Perfluorobutanoic acid]; details: 2200 nM; in DMSO
Procedure: as §1

Perfluoropropanoic acid = compound: O=C(O)C(F)(F)C(F)(F)F [Perfluoropropanoic acid]; details: 2200 nM; in DMSO
Procedure: as §1

[7] = compound: O=C(O)C(F)(F)C(F)(F)OC(F)(F)F [Perfluoro-3-methoxypropanoic acid]; details: 2200 nM; in DMSO
Procedure: as §1

[8] = compound: O=C(O)C(F)(F)OC(F)(F)C(F)(F)OC(F)(F)C(=O)O [Perfluoro-3,6-dioxaoctane-1,8-dioic acid]; details: 2200 nM; in DMSO
Procedure: as §1

[9] = compound: O=C(O)C(F)(F)OC(F)(F)C(F)(F)OC(F)(F)C(F)(F)C(F)(F)C(F)(F)F [Perfluoro-3,6-dioxadecanoic acid]; details: 2200 nM; in DMSO
Procedure: as §1

[10] = compound: O=C(O)C=CC(F)(C(F)(F)F)C(F)(F)F [3-(Perfluoroisopropyl)-2-propenoic acid]; details: in DMSO
Procedure: as §1

[11] = compound: O=P(O)(O)CCC(F)(F)C(F)(F)C(F)(F)C(F)(F)C(F)(F)C(F)(F)C(F)(F)C(F)(F)F [((Perfluorooctyl)ethyl)phosphonic acid]; details: 2200 nM; in DMSO
Procedure: as §1

[12] = compound: O=S(=O)(Cl)C(F)(F)C(F)(F)C(F)(F)C(F)(F)C(F)(F)C(F)(F)C(F)(F)C(F)(F)F [Perfluoro-1-octanesulfonyl chloride]; details: 2200 nM; in DMSO
Procedure: as §1

[13] = compound: OCC(F)(F)C(F)(F)C(F)(F)C(F)(F)C(F)(F)C(F)(F)C(F)(F)C(F)(F)C(F)(F)C(F)(F)C(F)(F)F [11:1 Fluorotelomer alcohol]; details: in DMSO
Procedure: as §1

[14] = compound: OCCC(F)(F)C(F)(F)C(F)(F)C(F)(F)C(F)(F)C(F)(F)C(F)(F)C(F)(F)F [8:2 Fluorotelomer alcohol]; details: 2200 nM; in DMSO
Procedure: as §1

Test System | level (log10) [1] | level (log10) [2] | level (log10) ([3]; 740 nM) | level (log10) ([3]; 2200 nM) | level (log10) ([3]; 6700 nM) | level (log10) ([3]; 20000 nM) | level (log10) ([4]; 740 nM) | level (log10) ([4]; 2200 nM) | level (log10) ([4]; 6700 nM) | level (log10) ([4]; 20000 nM) | level (log10) [5] | level (log10) (Perfluorooctanamide) | level (log10) (Perfluoroundecanoic acid; 740 nM) | level (log10) (Perfluoroundecanoic acid; 2200 nM) | level (log10) [6] | level (log10) (Perfluorobutanoic acid) | level (log10) (Perfluoropropanoic acid) | level (log10) [7] | level (log10) [8] | level (log10) [9] | level (log10) ([10]; 2200 nM) | level (log10) ([10]; 6700 nM) | level (log10) ([10]; 20000 nM) | level (log10) ([10]; 60000 nM) | level (log10) [11] | level (log10) [12] | level (log10) ([13]; 370 nM) | level (log10) ([13]; 1100 nM) | level (log10) ([13]; 3300 nM) | level (log10) ([13]; 10000 nM) | level (log10) [14]
BF4T:CCL2/MCP-1 | -0.0135 ± 0.044 | -0.009 ± 0.0071 | 0.0235 ± 0.012 | -0.007 ± 0.014 | -0.0135 ± 0.015 | -0.0245 ± 0.066 | 0.0155 ± 0.026 | -0.0005 ± 0.0078 | -0.0105 ± 0.0092 | 0.011 ± 0.02 | 0.033 ± 0.062 | 0.016 ± 0.034 | -0.002 ± 0.041 | 0.0085 ± 0.03 | -0.091 ± 0.041 | 0.0205 ± 0.042 | 0.0015 ± 0.025 | 0.0395 ± 0.054 | 0.0355 ± 0.019 | -0.103 ± 0.083 | 0.034 ± 0.035 | 0.0045 ± 0.023 | 0.003 ± 0.013 | 0.0505 ± 0.076 | 0.044 ± 0.069 | 0.0085 ± 0.028 | 0.0125 ± 0.0078 | 0.018 ± 0.042 | 0.0235 ± 0.021 | 0.031 ± 0.023 | -0.005 ± 0.054
BT:PBMC Cytotoxicity | 0.031 ± 0.0057 | -0.0625 ± 0.015 | 0.013 ± 0.0014 | 0.01 ± 0.0099 | 0.0115 ± 0.0035 | 0.0115 ± 0.011 | 0.033 ± 0.057 | 0.0085 ± 0.076 | 0.014 ± 0.0057 | 0.0075 ± 0.049 | 0.0035 ± 0.025 | 0.027 ± 0.052 | 0.044 ± 0.02 | 0.023 ± 0.024 | -0.0025 ± 0.018 | 0.006 ± 0.011 | -0.008 ± 0.028 | 0.008 ± 0.062 | -0.006 ± 0.071 | 0.0015 ± 0.0035 | -0.017 ± 0.0042 | -0.016 ± 0.0042 | 0.002 ± 0.0042 | 0.021 ± 0.0057 | 0.0025 ± 0.005 | 0.03 ± 0.0042 | -0.009 ± 0.052 | -0.073 ± 0.044 | -0.09 ± 0.038 | -0.0775 ± 0.019 | 0.013 ± 0.0057
KF3CT:CXCL8/IL-8 | 0.0095 ± 0.0064 | 0.0055 ± 0.00071 | 0.0105 ± 0.005 | 0.0055 ± 0.0092 | 0.013 ± 0.0071 | 0.0605 ± 0.0092 | 0.0025 ± 0.0078 | 0.0055 ± 0.005 | 0.0135 ± 0.0021 | 0.014 ± 0.0028 | 0.007 ± 0.025 | -0.011 ± 0.0057 | 0.015 ± 0.0099 | 0.0025 ± 0.037 | 0.0025 ± 0.018 | 0.011 ± 0.041 | 0.0205 ± 0.0092 | 0.007 ± 0.045 | 0.012 ± 0.041 | -0.0115 ± 0.018 | 0.007 ± 0.034 | 0.001 ± 0.013 | 0.0085 ± 0.028 | 0.018 ± 0.0014 | 0.017 ± 0.018 | -0.0045 ± 0.0078 | -0.0095 ± 0.0064 | 0 ± 0.013 | 0.015 | 0.014 ± 0.025 | 0 ± 0.016
3C:Proliferation | -0.012 ± 0.035 | -0.131 ± 0.071 | -0.0365 ± 0.022 | 0.001 ± 0.0028 | -0.019 ± 0.0085 | -0.027 ± 0.0057 | 0.0035 ± 0.032 | 0.009 ± 0.0071 | 0.0035 ± 0.013 | -0.0125 ± 0.0078 | -0.0455 ± 0.011 | 0.007 ± 0.058 | -0.01 ± 0.048 | 0.041 ± 0.013 | -0.015 ± 0.047 | -0.0065 ± 0.053 | -0.0415 ± 0.059 | -0.04 ± 0.055 | 0.0015 ± 0.08 | -0.0875 ± 0.1 | -0.039 ± 0.086 | -0.0185 ± 0.09 | -0.002 ± 0.037 | -0.0145 ± 0.049 | -0.0785 ± 0.076 | -0.0445 ± 0.063 | -0.0685 ± 0.081 | -0.189 ± 0.012 | -0.436 ± 0.042 | -0.338 ± 0.051 | -0.044 ± 0.044
MyoF:CXCL8/IL-8 | 0.031 ± 0.0028 | -0.0195 ± 0.011 | 0.018 ± 0.0071 | 0.001 ± 0.027 | 0.0195 ± 0.0064 | 0.0335 ± 0.025 | -0.027 ± 0.054 | -0.0235 ± 0.022 | 0.028 ± 0.018 | 0.034 ± 0.038 | 0.006 ± 0.028 | 0.01 ± 0.044 | -0.0025 ± 0.0021 | -0.018 ± 0.0085 | 0.015 ± 0.0014 | -0.003 ± 0.13 | -0.0015 ± 0.026 | 0.0245 ± 0.063 | 0.012 ± 0.067 | -0.0055 ± 0.0078 | -0.02 ± 0.0042 | -0.0445 ± 0.0064 | -0.032 ± 0.0028 | -0.0025 ± 0.019 | 0.02 ± 0.038 | -0.0015 ± 0.0064 | -0.0125 ± 0.076 | -0.0155 ± 0.035 | -0.0145 ± 0.037 | 0 ± 0.04 | 0.0075 ± 0.037
BE3C:CD54/ICAM-1 | 0.011 ± 0.031 | 0.002 ± 0.0085 | 0.004 | -0.0035 ± 0.015 | 0.0115 ± 0.005 | -0.009 ± 0.016 | -0.0045 ± 0.0064 | -0.006 ± 0.016 | -0.0125 ± 0.026 | 0.006 ± 0.013 | -0.0025 ± 0.00071 | 0.0005 ± 0.013 | -0.0145 ± 0.019 | -0.0105 ± 0.037 | -0.025 ± 0.0099 | -0.0225 ± 0.021 | 0.012 ± 0.0057 | 0.0105 ± 0.0064 | 0.0165 ± 0.0078 | 0.009 ± 0.0071 | -0.006 ± 0.035 | 0.002 ± 0.0057 | -0.005 | 0.004 ± 0.0071 | 0 ± 0.0085 | 0.004 ± 0.025 | -0.0185 ± 0.0035 | -0.0245 ± 0.00071 | -0.054 ± 0.0099 | -0.025 ± 0.0028 | 0.019 ± 0.038
BF4T:uPA | -0.0155 ± 0.0035 | 0.0155 ± 0.0078 | -0.0145 ± 0.019 | -0.0205 ± 0.028 | -0.011 ± 0.035 | -0.012 ± 0.033 | -0.0145 ± 0.056 | 0.0115 ± 0.005 | -0.0365 ± 0.016 | -0.026 ± 0.016 | 0.01 ± 0.0071 | -0.005 ± 0.024 | -0.016 ± 0.038 | -0.0355 ± 0.015 | -0.015 ± 0.011 | 0.004 ± 0.0071 | -0.0095 ± 0.0021 | 0.0055 ± 0.026 | 0.01 ± 0.025 | 0.0075 ± 0.0064 | 0.018 ± 0.047 | -0.007 ± 0.016 | -0.016 ± 0.0057 | 0.0065 ± 0.018 | 0.0105 ± 0.023 | -0.0265 ± 0.021 | -0.008 ± 0.0085 | 0 | -0.005 ± 0.0071 | 0.0015 ± 0.0064 | -0.0335 ± 0.022
